# Experimental data: the supplement of paper PMC8728848
# The other results are listed elsewhere or left out.
# B1: Endo180d1-D4 (Homo sapiens), Q9UBG0 (protein)
# chain: MGPGRPAPAPWPRHLLRCVLLLGCLHLGRPGAPGDAALPEPNVFLIFSHGLQGCLEAQGGQVRVTPACNTSLPAQRWKWVSRNRLFNLGTMQCLGTGWPGTNTTASLGMYECDREALNLRWHCRTLGDQLSLLLGARTSNISKPGTLERGDQTRSGQWRIYGSEEDLCALPYHEVYTIQGNSHGKPCTIPFKYDNQWFHGCTSTGREDGHLWCATTQDYGKDERWGFCPIKSNDCETFWDKDQLTDSCYQFNFQSTLSWREAWASCEQQGADLLSITEIHEQTYINGLLTGYSSTLWIGLNDLDTSGGWQWSDNSPLKYLNWESDQPDNPSEENCGVIRTESSGGWQNRDCSIALPYVCKKKPNATAEPTPPDRWANVKVECEPSWQPFQGHCYRLQAEKRSWQESKKACLRGGGDLVSIHSMAELEFITKQIKQEVEELWIGLNDLKLQMNFEWSDGSLVSFTHWHPFEPNNFRDSLEDCVTIWGPEGRWNDSPCNQSLPSICKKAGQLSQGAAEEDHGCRKGWTWHSPSCYWLGEDQVTYSEARRLCTDHGSQLVTITNRFEQAFVSSLIYNWEGEYFWTALQDLNSTGSFFWLSGDEVMYTHWNRDQPGYSRGGCVALATGSAMGLWEVKNCTSFRARYICRQSLGTPVTPELPGPDPTPSLTGSCPQGWASDTKLRYCYKVFSSERLQDKKSWVQAQGACQELGAQLLSLASYEEEHFVANMLNKIFGESEPEIHEQHWFWIGLNRRDPRGGQSWRWSDGVGFSYHNFDRSRHDDDDIRGCAVLDLASLQWVAMQCDTQLDWICKIPRGTDVREPDDSPQGRREWLRFQEAEYKFFEHHSTWAQAQRICTWFQAELTSVHSQAELDFLSHNLQKFSRAQEQHWWIGLHTSESDGRFRWTDGSIINFISWAPGKPRPVGKDKKCVYMTASREDWGDQRCLTALPYICKRSNVTKETQPPDLPTTALGGCPSDWIQFLNKCFQVQGQEPQSRVKWSEAQFSCEQQEAQLVTITNPLEQAFITASLPNVTFDLWIGLHASQRDFQWVEQEPLMYANWAPGEPSGPSPAPSGNKPTSCAVVLHSPSAHFTGRWDDRSCTEETHGFICQKGTDPSLSPSPAALPPAPGTELSYLNGTFRLLQKPLRWHDALLLCESHNASLAYVPDPYTQAFLTQAARGLRTPLWIGLAGEEGSRRYSWVSEEPLNYVGWQDGEPQQPGGCTYVDVDGAWRTTSCDTKLQGAVCGVSSGPPPPRRISYHGSCPQGLADSAWIPFREHCYSFHMELLLGHKEARQRCQRAGGAVLSILDEMENVFVWEHLQSYEGQSRGAWLGMNFNPKGGTLVWQDNTAVNYSNWGPPGLGPSMLSHNSCYWIQSNSGLWRPGACTNITMGVVCKLPRAEQSSFSPSALPENPAALVVVLMAVLLLLALLTAALILYRRRQSIERGAFEGARYSRSSSSPTEATEKNILVSDMEMNEQQE
# Columns and labels:
# Assay in all cases: glycan array binding signal (z-score within array); higher = stronger binding
# Details in all cases: glycan notation: IUPAC condensed, linker removed
# [1] = target: GlcNAc(a1-3)Gal(b1-4)GlcNAc
# Outline: (§1)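 The binding signal is a Z-score computed within each array. Data were drawn from 3228 arrays in the Consortium for Functional Glycomics database, restricted to those with a known protein sequence. Scores were averaged over arrays of the same protein sequence at different concentrations or buffers, and over linkers, and negative values can be taken as non-binding.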
# [2] = target: GlcNAc(a1-4)Gal(b1-3)GlcNAc
# Outline: as §1
# [3] = target: GlcNAc(a1-4)Gal(b1-4)GalNAc
# Outline: as §1
# [4] = target: GlcNAc(a1-4)Gal(b1-4)GlcNAc
# Outline: as §1
# [5] = target: GlcNAc(a1-4)Gal(b1-4)GlcNAc(b1-3)Gal(b1-4)Glc
# Outline: as §1
# [6] = target: GlcNAc(a1-4)Gal(b1-4)GlcNAc(b1-3)Gal(b1-4)GlcNAc
# Outline: as §1
# [7] = target: GlcNAc(a1-4)Gal(b1-4)GlcNAc(b1-3)Gal(b1-4)GlcNAc(b1-3)Gal(b1-4)GlcNAc
# Outline: as §1
# [8] = target: GlcNAc(a1-4)Gal(b1-4)GlcNAc(b1-3)Gal(b1-4)[Fuc(a1-3)]GlcNAc(b1-3)Gal(b1-4)[Fuc(a1-3)]GlcNAc
# Outline: as §1
# [9] = target: GlcNAc(a1-6)Gal(b1-4)GlcNAc
# Outline: as §1
# [10] = target: GlcNAc(b1-2)Gal(b1-3)GalNAc
# Outline: as §1
# [11] = target: GlcNAc(b1-2)Man(a1-3)[GlcNAc(b1-2)Man(a1-6)]Man(b1-4)GlcNAc(b1-4)GlcNAc
# Outline: as §1
# [12] = target: GlcNAc(b1-2)Man(a1-3)[GlcNAc(b1-2)Man(a1-6)]Man(b1-4)GlcNAc(b1-4)[Fuc(a1-6)]GlcNAc
# Outline: as §1
# [13] = target: GlcNAc(b1-2)Man(a1-3)[GlcNAc(b1-4)][GlcNAc(b1-2)Man(a1-6)]Man(b1-4)GlcNAc(b1-4)GlcNAc
# Outline: as §1
# [14] = target: GlcNAc(b1-2)Man(a1-3)[GlcNAc(b1-4)][GlcNAc(b1-2)Man(a1-6)]Man(b1-4)GlcNAc(b1-4)[Fuc(a1-6)]GlcNAc
# Outline: as §1
# [15] = target: GlcNAc(b1-2)[GlcNAc(b1-4)]Man(a1-3)[GlcNAc(b1-2)Man(a1-6)]Man(b1-4)GlcNAc(b1-4)GlcNAc
# Outline: as §1
# [16] = target: GlcNAc(b1-2)[GlcNAc(b1-4)]Man(a1-3)[GlcNAc(b1-4)][GlcNAc(b1-2)Man(a1-6)]Man(b1-4)GlcNAc(b1-4)GlcNAc
# Outline: as §1
# [17] = target: GlcNAc(b1-2)[GlcNAc(b1-4)]Man(a1-3)[GlcNAc(b1-4)][GlcNAc(b1-2)[GlcNAc(b1-6)]Man(a1-6)]Man(b1-4)GlcNAc(b1-4)GlcNAc
# Outline: as §1
# [18] = target: GlcNAc(b1-2)[GlcNAc(b1-4)]Man(a1-3)[GlcNAc(b1-4)][GlcNAc(b1-2)[GlcNAc(b1-6)]Man(a1-6)]Man(b1-4)GlcNAc(b1-4)[Fuc(a1-6)]GlcNAc
# Outline: as §1
# [19] = target: GlcNAc(b1-2)[GlcNAc(b1-6)]Man(a1-6)[GlcNAc(b1-2)Man(a1-3)]Man(b1-4)GlcNAc(b1-4)GlcNAc
# Outline: as §1
# [20] = target: GlcNAc(b1-2)[GlcNAc(b1-6)]Man(a1-6)[GlcNAc(b1-2)Man(a1-3)]Man(b1-4)GlcNAc(b1-4)[Fuc(a1-6)]GlcNAc
# Outline: as §1
# [21] = target: GlcNAc(b1-2)[GlcNAc(b1-6)]Man(a1-6)[GlcNAc(b1-4)][GlcNAc(b1-2)Man(a1-3)]Man(b1-4)GlcNAc(b1-4)GlcNAc
# Outline: as §1
# [22] = target: GlcNAc(b1-3)Fuc
# Outline: as §1
binder,measurement,setting,value
B1,glycan array binding signal (z-score),[1],0.118
same,glycan array binding signal (z-score),[2],0.364
same,glycan array binding signal (z-score),[3],-0.567
same,glycan array binding signal (z-score),[4],0.372
same,glycan array binding signal (z-score),[5],0.607
same,glycan array binding signal (z-score),[6],-0.765
same,glycan array binding signal (z-score),[7],-1.03
same,glycan array binding signal (z-score),[8],-0.416
same,glycan array binding signal (z-score),[9],-0.055
same,glycan array binding signal (z-score),[10],-0.524
same,glycan array binding signal (z-score),[11],-0.032
same,glycan array binding signal (z-score),[12],5.6
same,glycan array binding signal (z-score),[13],-0.82
same,glycan array binding signal (z-score),[14],-0.027
same,glycan array binding signal (z-score),[15],-1.06
same,glycan array binding signal (z-score),[16],-0.162
same,glycan array binding signal (z-score),[17],0.446
same,glycan array binding signal (z-score),[18],1.13
same,glycan array binding signal (z-score),[19],0.094
same,glycan array binding signal (z-score),[20],0.318
same,glycan array binding signal (z-score),[21],0.137
same,glycan array binding signal (z-score),[22],0.059

# Looked up one by one from the entries so far, two records:
binder,measurement,setting,value
B1,glycan array binding signal (z-score),[13],-0.82
same,glycan array binding signal (z-score),[1],0.118
